PubChem BioAssay AID602196, INSERM, 2012
This is one part, drawn at random, of about 23,000 reagents tested. 455 of them (2%) were called active. 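Active includes both protection and sensitisation; some change values fall well beyond the stated -50 to +50 range.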 The record does not give: the amount of reagent.

Purpose: 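Genes whose knock-down alters cisplatin killing of lung cancer cells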
Cells: human A549 lung cancer cells
Knock-down reagent: siRNA pair against human genes
Timing: 48 h transfection before cisplatin; time from cisplatin to read-out not stated
Challenge: cisplatin at a dose killing half of control-siRNA cells; exact dose and duration not given
Detection: 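Cisplatin cell death as a shift from the 50% death seen with control siRNA; siRNAs toxic or growth-blocking alone scored 0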
Direction: two-siRNA summed score (-2 to +2): higher = both siRNAs protect from cisplatin killing; -2 means both sensitise; mean protection from cisplatin (shift in death) and protection from cisplatin (shift in death), siRNA C and protection from cisplatin (shift in death), siRNA D: higher = protection from cisplatin killing
Hit rule: 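Each siRNA scores 0 if harmful alone by LDH or WST-1, otherwise +1 if it reduces and -1 if it increases cisplatin killing; a gene is active when both siRNAs agree (sum +2 or -2)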
Meaning of the calls: active = both siRNAs shift cisplatin killing the same way; inactive = no consistent shift, or siRNA harmful alone

Target gene | two-siRNA summed score (-2 to +2) | mean protection from cisplatin (shift in death) (%) | protection from cisplatin (shift in death), siRNA C (%) | protection from cisplatin (shift in death), siRNA D (%) | activity call
RAD54L2 | 0 | 8 | 14.2 | 1.8 | inactive
OR10S1 | 0 | 3 | 10.2 | -4.1 | inactive
DKFZp686P0288 | 0 | 6.1 | 4.8 | 7.4 | inactive
POMP | 0 | 12.7 | 12.2 | 13.1 | inactive
LOC442696 | 0 | 8.2 | 7.2 | 9.1 | inactive
LOC440844 | 1 | 7.9 | 13 | 2.8 | inactive
SH3TC2-DT | 0 | 13.7 | 18 | 9.4 | inactive
CTSH | 0 | 0.5 | -30.9 | 31.9 | inactive
POU3F1 | 1 | 17.3 | 27.7 | 6.9 | inactive
TMEM95 | 0 | 5.7 | 4.3 | 7.1 | inactive
LOC400839 | 0 | 0.5 | -5.2 | 6.2 | inactive
SLC31A1 | 1 | 6.7 | 0.5 | 12.8 | inactive
GABRP | 0 | 1.1 | 20.2 | -18 | inactive
HHCM | 1 | 16.4 | 20.9 | 11.8 | inactive
PSEN2 | 0 | -1.8 | -7.7 | 4.2 | inactive
ZBTB18 | 0 | -10.3 | -20.5 | -0.1 | inactive
WTAP | -1 | -8 | -24.1 | 8.1 | inactive
YTHDC1 | 0 | -6.9 | -9.4 | -4.3 | inactive
CDCA3 | 0 | -11.7 | -10.9 | -12.5 | inactive
ADAM17 | 0 | 0.5 | 9.7 | -8.7 | inactive
FLJ38564 | 0 | 4.3 | -3.1 | 11.6 | inactive
LINC03124 | 0 | 10.6 | 7.4 | 13.9 | inactive
ESD | 0 | 4.7 | 9.8 | -0.3 | inactive

Part of the list above, reformatted:
Target gene,two-siRNA summed score (-2 to +2),mean protection from cisplatin (shift in death) (%),"protection from cisplatin (shift in death), siRNA C (%)","protection from cisplatin (shift in death), siRNA D (%)",activity call
LINC03124,0,10.6,7.4,13.9,inactive
ESD,0,4.7,9.8,-0.3,inactive
